From patent US7541179
These are yes or no findings as the source states them, for the method shown. Some binding calls cover weakened binding; strength is not graded here.

Amino acid sequences for entries named in this document (tags omitted). Residues count along the entry.
UniProt P01942, residues 2-142: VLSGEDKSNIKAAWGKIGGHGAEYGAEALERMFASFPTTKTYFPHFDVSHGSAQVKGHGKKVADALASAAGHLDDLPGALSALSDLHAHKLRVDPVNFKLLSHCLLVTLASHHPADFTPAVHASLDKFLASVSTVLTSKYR
UniProt P68871, residues 2-147: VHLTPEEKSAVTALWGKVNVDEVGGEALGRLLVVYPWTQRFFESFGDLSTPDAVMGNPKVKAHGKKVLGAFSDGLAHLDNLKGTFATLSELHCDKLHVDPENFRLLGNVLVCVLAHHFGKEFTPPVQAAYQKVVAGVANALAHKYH

How the values were obtained:
[1] = target: endogenous murine α-globin (mouse) (UniProt P01942); assay: cellulose acetate gel fractionation of red cell lysates
[2] = target: endogenous murine α-globin (mouse) (UniProt P01942); assay: quantitative hemoglobin analysis of tetramers (Hbb^hu, mu α2: huβ^A2)
[3] = target: endogenous murine α-globin (mouse) (UniProt P01942); assay: haemoglobin analysis of peripheral blood

Measured: binding

vector-encoded human β-globin (β^A) (from UniProt P68871 2-147)
binds: all assays above
